Data taken from PubChem BioAssay AID1347093, deposited by NCATS (2019).

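SK-N-MC pediatric tumor cells exposed to compounds for 48 h, with viable cell level measured by CellTiter-Glo luminescence.
Compounds were titrated in 8- or 11-point series with a top concentration near 46 µM.
The value is the fitted AC50 potency for cell killing; a smaller number means a more potent cytotoxic compound.
Calls come from NCATS curve classes and scores: scores of 40-100 are active, 1-39 inconclusive (weak, poorly fitted or single-point curves), and class 4 is inactive.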

Values are in nM.
Every entry below has the call inconclusive.
Only part of the assay is shown, chiefly results filed as inconclusive.
Potencies fitted to partial, single-point or poorly fitting curves are rough.
Activity scores are not listed here.

SMILES,potency (nM),remark
Cc1cc(O)c(C)c(C)c1O,2.4,"cytotoxic, full curve, poor fit"
CC1(C)CNc2cc(NC(=O)c3cccnc3NCc3ccncc3)ccc21,742.7,"cytotoxic, full curve, poor fit"
CCCCC(CC)COC(=O)c1ccccc1C(=O)O (configuration not stated),19725,"cytotoxic, partial curve, poor fit"
CCOC(=O)C1=C(C)NC(C)=C(C(=O)OC)C1c1cccc(Cl)c1Cl (configuration not stated),33498,"cytotoxic, single point"
COc1ccc2c(c1OC)C(=O)O[C@@H]2[C@H]1c2c(cc3c(c2OC)OCO3)CCN1C,33498,"cytotoxic, single point"
CN1CCN(CCCN2c3ccccc3Sc3ccc(C(F)(F)F)cc32)CC1,33498,"cytotoxic, single point"
CC(=O)C1=C(O)C=C2Oc3c(C(C)=O)c(O)c(C)c(O)c3C2(C)C1=O (configuration not stated),37221,"cytotoxic, single point"
CCCCCN(CCCCC)C(=O)C(CCC(=O)O)NC(=O)c1ccc(Cl)c(Cl)c1 (configuration not stated),33498,"cytotoxic, single point"
O=C(N/N=C/c1ccc([N+](=O)[O-])o1)c1ccc(O)cc1,33498,"cytotoxic, single point"
CC(=O)OCC(=O)[C@@]12OC(C)(C)O[C@H]1C[C@H]1[C@@H]3C[C@H](F)C4=CC(=O)C=C[C@]4(C)[C@@]3(F)[C@@H](O)C[C@@]12C,37221,"cytotoxic, single point"
O=C(O)C1CCCN(CCC=C(c2ccccc2)c2ccccc2)C1 (configuration not stated),26350,"cytotoxic, single point"
CC(C)NC[C@@H](O)COc1cccc2ccccc12,2.1,"cytotoxic, full curve, poor fit"
Nc1ccc(O)cc1,33498,"cytotoxic, single point"
CCOC(=O)c1ccc(O)c(O)c1,26608,"cytotoxic, single point"
Cn1c(=O)c2[nH]c(Br)nc2n(C)c1=O,29855,"cytotoxic, single point"
CO[C@H]1C=CO[C@@]2(C)Oc3c(C)c(O)c4c(O)c(c(/C=N/N5CCN(C)CC5)c(O)c4c3C2=O)NC(=O)/C(C)=C\C=C[C@H](C)[C@H](O)[C@@H](C)[C@@H](O)[C@@H](C)[C@H](OC(C)=O)[C@@H]1C,18837,"cytotoxic, single point"

The first 2 entries again:

{"smiles": "Cc1cc(O)c(C)c(C)c1O", "potency (nM)": "2.4", "remark": "cytotoxic, full curve, poor fit"}
{"smiles": "CC1(C)CNc2cc(NC(=O)c3cccnc3NCc3ccncc3)ccc21", "potency (nM)": "742.7", "remark": "cytotoxic, full curve, poor fit"}